Assay results reported in article PMC2904376.
No constants are given. Whether binding was seen depends on the method and setting. In cells and extracts the contact can be indirect. Some results given as binding are weak or reduced against the parent protein; the word gives no strength.

Chains of the proteins cited; added tags and fusions are not shown. Residues count along the entry.
low-density lipoprotein receptor-related protein-1 (LRP-1) α-chain (human (endogenous in FTC133)) (Q07954, residues 20-3943): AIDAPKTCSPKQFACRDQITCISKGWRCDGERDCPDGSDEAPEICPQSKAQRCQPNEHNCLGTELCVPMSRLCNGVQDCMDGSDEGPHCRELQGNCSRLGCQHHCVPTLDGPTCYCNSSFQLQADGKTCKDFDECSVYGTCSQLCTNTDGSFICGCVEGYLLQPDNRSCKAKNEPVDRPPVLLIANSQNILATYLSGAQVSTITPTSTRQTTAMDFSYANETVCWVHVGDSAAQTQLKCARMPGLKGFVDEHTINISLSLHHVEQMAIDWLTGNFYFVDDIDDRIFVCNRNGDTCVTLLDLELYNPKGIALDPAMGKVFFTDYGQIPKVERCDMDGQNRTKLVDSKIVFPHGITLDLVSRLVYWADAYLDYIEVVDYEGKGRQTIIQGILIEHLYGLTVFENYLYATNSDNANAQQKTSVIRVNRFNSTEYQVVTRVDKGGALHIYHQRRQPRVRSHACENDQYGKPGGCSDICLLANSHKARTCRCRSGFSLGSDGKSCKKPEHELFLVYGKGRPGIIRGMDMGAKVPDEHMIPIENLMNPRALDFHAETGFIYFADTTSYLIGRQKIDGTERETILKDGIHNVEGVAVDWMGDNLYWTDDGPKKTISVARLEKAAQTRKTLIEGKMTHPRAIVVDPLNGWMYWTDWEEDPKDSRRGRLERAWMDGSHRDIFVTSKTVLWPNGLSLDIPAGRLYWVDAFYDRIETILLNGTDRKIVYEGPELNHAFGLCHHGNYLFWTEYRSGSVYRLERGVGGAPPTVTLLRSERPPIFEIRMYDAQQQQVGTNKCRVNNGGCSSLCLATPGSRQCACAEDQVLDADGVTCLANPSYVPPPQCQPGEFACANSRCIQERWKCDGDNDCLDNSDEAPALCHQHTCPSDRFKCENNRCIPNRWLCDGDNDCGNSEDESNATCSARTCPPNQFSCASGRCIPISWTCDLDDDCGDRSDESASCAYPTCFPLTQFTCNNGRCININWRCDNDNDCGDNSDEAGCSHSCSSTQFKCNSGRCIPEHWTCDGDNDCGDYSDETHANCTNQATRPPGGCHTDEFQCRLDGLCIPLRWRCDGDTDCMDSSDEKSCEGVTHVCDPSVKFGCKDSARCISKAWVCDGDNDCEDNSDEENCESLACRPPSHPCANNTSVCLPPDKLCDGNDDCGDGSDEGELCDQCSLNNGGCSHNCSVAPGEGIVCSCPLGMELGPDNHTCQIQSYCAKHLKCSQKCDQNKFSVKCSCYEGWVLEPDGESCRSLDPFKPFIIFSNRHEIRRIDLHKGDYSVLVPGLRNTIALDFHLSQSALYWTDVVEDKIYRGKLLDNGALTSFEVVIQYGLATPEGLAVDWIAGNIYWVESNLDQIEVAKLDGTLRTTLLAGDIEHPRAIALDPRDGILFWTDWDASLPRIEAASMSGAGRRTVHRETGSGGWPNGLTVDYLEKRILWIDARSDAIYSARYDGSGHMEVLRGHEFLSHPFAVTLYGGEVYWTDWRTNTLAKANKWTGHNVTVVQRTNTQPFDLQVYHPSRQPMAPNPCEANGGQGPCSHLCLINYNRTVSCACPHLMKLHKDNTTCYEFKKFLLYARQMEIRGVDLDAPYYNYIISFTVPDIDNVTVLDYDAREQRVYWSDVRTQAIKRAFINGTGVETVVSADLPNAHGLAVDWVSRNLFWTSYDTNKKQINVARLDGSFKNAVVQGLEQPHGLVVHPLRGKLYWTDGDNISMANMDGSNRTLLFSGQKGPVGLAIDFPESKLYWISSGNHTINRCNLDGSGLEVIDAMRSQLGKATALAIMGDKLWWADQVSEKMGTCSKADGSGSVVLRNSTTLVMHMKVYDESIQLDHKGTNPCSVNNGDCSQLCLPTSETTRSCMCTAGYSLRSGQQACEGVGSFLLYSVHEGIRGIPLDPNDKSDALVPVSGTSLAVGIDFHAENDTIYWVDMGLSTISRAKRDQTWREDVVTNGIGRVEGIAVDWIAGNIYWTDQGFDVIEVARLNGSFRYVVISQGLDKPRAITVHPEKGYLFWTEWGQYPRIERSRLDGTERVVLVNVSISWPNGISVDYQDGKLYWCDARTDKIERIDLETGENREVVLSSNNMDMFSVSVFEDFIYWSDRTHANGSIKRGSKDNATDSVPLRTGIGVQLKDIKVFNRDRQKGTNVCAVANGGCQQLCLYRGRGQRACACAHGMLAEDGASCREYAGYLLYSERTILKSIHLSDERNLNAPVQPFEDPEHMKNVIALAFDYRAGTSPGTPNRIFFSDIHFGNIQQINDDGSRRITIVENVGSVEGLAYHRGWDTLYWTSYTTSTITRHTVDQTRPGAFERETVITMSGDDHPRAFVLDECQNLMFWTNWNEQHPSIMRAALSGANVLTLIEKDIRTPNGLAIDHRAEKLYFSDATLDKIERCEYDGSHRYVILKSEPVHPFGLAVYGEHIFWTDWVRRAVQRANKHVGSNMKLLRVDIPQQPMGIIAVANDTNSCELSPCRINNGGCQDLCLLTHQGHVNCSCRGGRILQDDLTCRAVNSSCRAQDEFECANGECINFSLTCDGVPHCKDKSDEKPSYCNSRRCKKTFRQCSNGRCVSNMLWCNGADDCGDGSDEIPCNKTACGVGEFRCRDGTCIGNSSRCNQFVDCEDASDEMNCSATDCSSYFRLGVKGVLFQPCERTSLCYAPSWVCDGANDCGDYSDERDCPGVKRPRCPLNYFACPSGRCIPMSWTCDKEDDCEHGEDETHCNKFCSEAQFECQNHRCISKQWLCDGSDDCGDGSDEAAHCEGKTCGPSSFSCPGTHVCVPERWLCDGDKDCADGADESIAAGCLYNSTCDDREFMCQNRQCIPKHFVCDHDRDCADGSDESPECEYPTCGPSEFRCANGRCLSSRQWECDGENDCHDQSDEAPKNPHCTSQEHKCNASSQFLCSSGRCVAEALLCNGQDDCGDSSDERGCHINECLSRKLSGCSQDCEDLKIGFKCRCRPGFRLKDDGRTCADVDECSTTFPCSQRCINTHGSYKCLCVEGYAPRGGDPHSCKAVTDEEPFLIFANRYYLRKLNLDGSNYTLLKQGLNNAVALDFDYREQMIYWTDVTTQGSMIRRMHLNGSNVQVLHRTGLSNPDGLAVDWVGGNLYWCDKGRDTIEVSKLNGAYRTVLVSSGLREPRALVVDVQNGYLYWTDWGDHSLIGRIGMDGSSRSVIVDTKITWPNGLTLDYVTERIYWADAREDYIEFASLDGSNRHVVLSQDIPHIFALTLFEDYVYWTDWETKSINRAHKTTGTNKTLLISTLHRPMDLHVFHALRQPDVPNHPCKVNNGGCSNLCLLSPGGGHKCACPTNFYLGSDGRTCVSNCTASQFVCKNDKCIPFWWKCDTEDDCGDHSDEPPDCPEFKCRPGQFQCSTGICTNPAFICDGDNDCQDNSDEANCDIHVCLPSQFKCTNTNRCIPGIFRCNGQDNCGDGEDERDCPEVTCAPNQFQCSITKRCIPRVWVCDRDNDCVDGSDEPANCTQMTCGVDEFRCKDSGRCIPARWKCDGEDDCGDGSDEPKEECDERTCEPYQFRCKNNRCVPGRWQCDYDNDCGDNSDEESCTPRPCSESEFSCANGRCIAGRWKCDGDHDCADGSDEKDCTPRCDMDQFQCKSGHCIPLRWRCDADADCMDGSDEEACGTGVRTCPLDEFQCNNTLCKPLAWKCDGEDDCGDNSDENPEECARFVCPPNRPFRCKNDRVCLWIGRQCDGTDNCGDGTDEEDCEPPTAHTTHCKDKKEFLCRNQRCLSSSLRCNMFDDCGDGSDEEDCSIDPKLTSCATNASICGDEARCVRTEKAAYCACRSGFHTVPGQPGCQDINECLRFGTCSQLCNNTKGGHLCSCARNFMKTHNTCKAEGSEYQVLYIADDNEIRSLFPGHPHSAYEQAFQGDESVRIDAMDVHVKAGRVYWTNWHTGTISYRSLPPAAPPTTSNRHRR
low-density lipoprotein receptor-related protein-1 (LRP-1) β-chain (human (endogenous in FTC133)) (Q07954, residues 3944-4544): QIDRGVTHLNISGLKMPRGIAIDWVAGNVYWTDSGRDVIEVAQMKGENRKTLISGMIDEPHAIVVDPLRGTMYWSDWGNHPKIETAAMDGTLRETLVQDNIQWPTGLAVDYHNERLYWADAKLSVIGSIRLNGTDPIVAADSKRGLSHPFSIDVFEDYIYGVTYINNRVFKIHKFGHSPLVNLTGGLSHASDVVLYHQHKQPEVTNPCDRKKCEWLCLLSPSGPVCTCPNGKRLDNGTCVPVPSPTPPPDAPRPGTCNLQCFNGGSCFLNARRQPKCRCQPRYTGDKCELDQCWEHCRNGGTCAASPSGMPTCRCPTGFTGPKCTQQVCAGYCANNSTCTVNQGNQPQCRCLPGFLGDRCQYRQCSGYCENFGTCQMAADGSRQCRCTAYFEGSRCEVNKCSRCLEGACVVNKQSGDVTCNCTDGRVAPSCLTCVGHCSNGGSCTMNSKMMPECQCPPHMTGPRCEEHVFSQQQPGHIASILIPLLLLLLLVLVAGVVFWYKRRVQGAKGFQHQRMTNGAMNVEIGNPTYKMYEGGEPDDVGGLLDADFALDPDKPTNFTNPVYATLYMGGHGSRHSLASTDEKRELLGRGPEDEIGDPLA
UniProt P49023: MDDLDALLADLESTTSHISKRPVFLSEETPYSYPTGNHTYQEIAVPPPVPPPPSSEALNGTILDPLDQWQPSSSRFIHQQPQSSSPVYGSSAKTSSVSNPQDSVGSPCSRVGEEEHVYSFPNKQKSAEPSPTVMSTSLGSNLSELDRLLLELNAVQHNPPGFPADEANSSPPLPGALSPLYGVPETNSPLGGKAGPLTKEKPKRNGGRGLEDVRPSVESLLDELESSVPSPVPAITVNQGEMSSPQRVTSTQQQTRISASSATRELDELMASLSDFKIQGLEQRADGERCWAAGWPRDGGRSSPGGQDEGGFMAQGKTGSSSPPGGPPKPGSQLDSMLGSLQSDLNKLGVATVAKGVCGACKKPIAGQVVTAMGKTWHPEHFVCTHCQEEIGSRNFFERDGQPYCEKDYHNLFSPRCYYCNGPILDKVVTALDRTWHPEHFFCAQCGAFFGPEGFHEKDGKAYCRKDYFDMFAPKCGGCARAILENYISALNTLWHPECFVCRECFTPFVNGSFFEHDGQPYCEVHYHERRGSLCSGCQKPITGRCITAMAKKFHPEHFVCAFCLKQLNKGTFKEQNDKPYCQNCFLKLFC

How the values were obtained:
[1] = biological target: low-density lipoprotein receptor-related protein-1 (LRP-1) α-chain (human (endogenous in FTC133)) (UniProt Q07954); assay: co-IP; LRP-1-containing complexes precipitated with anti-LRP-1 α-chain antibody (8G1) and protein G-Sepharose from 500 µg FTC133 cell extract (10 mM Tris-HCl pH 7.4, 150 mM NaCl, 5 mM EDTA, 0.1% Triton X-100), 4°C; immunoblot; nonspecific IgGs as negative control
[2] = biological target: low-density lipoprotein receptor-related protein-1 (LRP-1) β-chain (human (endogenous in FTC133)) (UniProt Q07954); assay: as above

Row | Substance | binding [1] | binding [2]
1 | low-density lipoprotein receptor-related protein-1 (LRP-1) β-chain (from UniProt Q07954 3944-4544) | binds | –
2 | paxillin (from UniProt P49023 1-591) | – | binds
